Data published in patent publication US20200338112A1, “METHODS AND MATERIALS FOR TREATING CANCER” (Mayo Foundation for Medical Education and Research, priority 2018, published 2020).
Results are given in words; binding and its absence hold for the method and conditions named. Binding seen in cells or lysates may run through a third protein. Some results given as binding are weak or reduced against the parent protein; the word gives no strength.

Chains of the proteins cited; added tags and fusions are not shown. Lines headed by an entry give the natural chain unless they say otherwise; changes in a name come on top. Residues count along the entry.
UniProt Q15717: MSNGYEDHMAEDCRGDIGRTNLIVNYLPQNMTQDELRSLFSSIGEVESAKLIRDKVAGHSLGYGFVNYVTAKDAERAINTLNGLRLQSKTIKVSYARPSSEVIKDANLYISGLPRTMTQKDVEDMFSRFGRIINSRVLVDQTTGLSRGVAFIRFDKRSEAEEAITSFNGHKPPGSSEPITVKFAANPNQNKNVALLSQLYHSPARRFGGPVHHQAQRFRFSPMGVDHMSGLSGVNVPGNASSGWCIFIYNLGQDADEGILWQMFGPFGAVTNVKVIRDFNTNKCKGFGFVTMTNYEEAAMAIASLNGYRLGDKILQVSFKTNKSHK
human antigen R (HuR): residues 2-326 of Q15717
UniProt Q9NZQ7: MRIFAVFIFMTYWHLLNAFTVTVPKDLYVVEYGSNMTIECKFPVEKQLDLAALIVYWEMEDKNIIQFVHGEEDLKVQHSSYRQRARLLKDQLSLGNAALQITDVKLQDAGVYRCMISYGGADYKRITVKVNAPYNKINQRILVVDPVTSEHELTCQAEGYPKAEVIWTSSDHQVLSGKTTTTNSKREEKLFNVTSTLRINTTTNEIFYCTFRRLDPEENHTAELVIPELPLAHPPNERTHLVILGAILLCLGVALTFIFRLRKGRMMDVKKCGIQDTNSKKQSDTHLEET
programmed death-ligand 1 (PD-L1): residues 19-290 of Q9NZQ7

Key:
[1] = target: human antigen R (HuR) (human) (UniProt Q15717); experiment: co-IP with PD-L1 truncations, western blot
[2] = target: programmed death-ligand 1 (PD-L1) (UniProt Q9NZQ7); experiment: co-IP with HuR truncations, western blot

| binding [1] | Substance | binding [2] |
| --- | --- | --- |
| binds | PD-L1 truncation containing the transmembrane domain plus cytoplasmic domain (T+C) (from UniProt Q9NZQ7 239-290) | – |
| – | HuR truncation RRM2+3 (from UniProt Q15717 106-326) | binds |
